Article PMC3192012 (Biochemistry, 2011)

Sequences of proteins named here, by UniProt entry; tags and fusion partners are left off. A change or cut given only in a name is not applied to a line headed by its entry.
UniProt Q86KR9: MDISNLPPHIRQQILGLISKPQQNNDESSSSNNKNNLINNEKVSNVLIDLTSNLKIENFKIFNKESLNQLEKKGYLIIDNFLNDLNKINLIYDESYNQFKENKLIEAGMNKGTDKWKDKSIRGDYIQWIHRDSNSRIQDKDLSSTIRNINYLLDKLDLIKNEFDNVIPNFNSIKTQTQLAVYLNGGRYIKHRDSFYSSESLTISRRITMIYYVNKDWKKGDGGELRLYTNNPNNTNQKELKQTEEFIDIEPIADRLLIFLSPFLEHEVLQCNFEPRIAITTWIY

Biological target: His6P4H1 (Dictyostelium discoideum, UniProt Q86KR9)
Experiment: […]CO2-release assay with Skp1A
Type: biochemical
Conditions: read-out: % inhibition at 1 mM

## O=C(O)CC(O)(CC(=O)O)C(=O)O [citrate]
  inhibition at 1000 µM: 50 to 70%
